# Source: PubChem BioAssay AID540276 (National Center for Advancing Translational Sciences (NCATS), 2011)
# Where “and” joins values, the source holds several entries; their conditions need not be identical. Equal values may be shown once. Hit rate of the full screen: of about 300,000 compounds, about 5,400 (1.8%) were called active. Inconclusive results, whose numbers are uncertain, are shown with a selection of clear calls. Calls come from the whole dose curve; tested in HEK293 cells. Where the call is inconclusive, the potency comes from a doubtful curve fit.
# Test: qHTS for inhibitors of binding or entry into cells for Marburg Virus
# Conditions: Marburg virus pseudotyped entry inhibition, cell reporter; series mostly up to 37.8 µM
# Potency is the fitted concentration of half-maximal effect.
row,SMILES,Potency
1,O=C(Nc1ccc2nc(SCC(=O)N3CCCc4ccccc43)sc2c1)c1ccccc1F,"inconclusive: 11.2 µM [inhibitor, partial curve, poor fit]"
2,O=Cc1ccc2ccc3cccnc3c2n1,"inconclusive: 35.5 µM [inhibitor, single point]"
3,CCc1ccc2oc(C(=O)Nc3cc(Cl)ccc3OC)cc(=O)c2c1,inactive
4,CCn1c(-c2ccccc2)csc1=Nc1ccc(O)cc1,inactive
5,O=C(CSc1nncn1-c1ccccn1)Nc1cccc(Cl)c1,inactive
6,Cn1c(-c2ccc(F)cc2)cnc1SCC(=O)Nc1ccccc1N1CCOCC1,inactive
7,Cc1ccc(N/C=C/C(=O)c2ccccc2)cc1C,"inconclusive: 0.1 µM [activator, full curve, poor fit]"
8,CC(N)Cc1c[nH]c2ccc(OCc3cccs3)cc12 (centres undefined),active: 20.6 µM and active: 3.55 µM
9,CC(=O)Oc1ccc(C(=O)Nc2ccc(S(=O)(=O)N3CCOCC3)cc2)cc1,"inconclusive: 0.794 µM [inhibitor, single point]"
10,Cc1ccc2nc(NC(=O)CCNS(=O)(=O)c3ccc(Br)s3)sc2c1,inactive
11,COCCn1c(C)cc(C(=O)CSc2nc3ccccc3o2)c1C,"inconclusive: 29.1 µM [inhibitor, single point]"
12,Cc1sc2nc(CSc3ccccc3)nc(NCCN(C)C)c2c1C,"inconclusive: 14.6 µM [inhibitor, partial curve, poor fit]"
13,CC(C)CC(=O)NC(=S)Nc1ccc(CN2CCOCC2)cc1,"inconclusive: 2.51 µM [activator, partial curve, poor fit]"
14,Cc1c(C(=O)OCC(C)(C)CN(C)C)oc2ccccc12,"inconclusive: 2.91 µM [activator, single point]"
15,Cc1cccc(NC(=O)CN2C(=O)S/C(=C\C(=O)Nc3ccc(Cl)cc3)C2=O)c1,"inconclusive: 1.41 µM [inhibitor, partial curve, poor fit]"
16,CCN(CC(=O)NCc1ccc(Cl)cc1)C(=O)c1cccc(S(=O)(=O)Nc2ccc(OC)cc2)c1,"inconclusive: 28.2 µM [inhibitor, single point]"
17,Cc1cc(-n2c(C)cc(C(=O)CSc3nnnn3-c3ccccc3)c2C)no1,inactive
18,Cc1ccc(C2=NN(S(=O)(=O)c3ccccc3)C(c3ccccc3O)C2)cc1 (centres undefined),"inconclusive: 35.5 µM [inhibitor, single point]"
19,COCCn1c(C(=O)N2CCCC2)cc2c1C[C@H]1CN(C(=O)c3ccccc3)[C@@](Cc3ccc(F)cc3)(C(=O)OC)[C@@H]21,"inconclusive: 23.1 µM [inhibitor, single point]"

# Another view of some results above.
row | SMILES | Potency
12 | Cc1sc2nc(CSc3ccccc3)nc(NCCN(C)C)c2c1C | inconclusive: 14.6 µM [inhibitor, partial curve, poor fit]
13 | CC(C)CC(=O)NC(=S)Nc1ccc(CN2CCOCC2)cc1 | inconclusive: 2.51 µM [activator, partial curve, poor fit]
15 | Cc1cccc(NC(=O)CN2C(=O)S/C(=C\C(=O)Nc3ccc(Cl)cc3)C2=O)c1 | inconclusive: 1.41 µM [inhibitor, partial curve, poor fit]
18 | Cc1ccc(C2=NN(S(=O)(=O)c3ccccc3)C(c3ccccc3O)C2)cc1 (centres undefined) | inconclusive: 35.5 µM [inhibitor, single point]
